Results taken from patent US6358921B1, “Antimicrobial peptide compositions and method” (priority 1996, dated 2002).
Where a SMILES comes first, the peptide text is derived from it. [ ]: non-standard residue; d: D form. Orn = NCCC[C@H](N)C(=O)O

How the values were obtained:
[1] = system: gram negative microorganisms; type: cell-based; conditions: hemolytic activity/antibiotic activity
Excerpt: (§1) The following bacterial strains were utilized: Escherichia coli UB1005 (wt) and its antibiotic supersusceptible derivative DC2 (Clark, 1984); Excherichia coli SC9251 and its polymixin B rasistant mutant pmrA SC9252 (Peterson, et al., 1987) Pseudomonas aeruginosa H187 (wt) (Angus, et al., 1987) and its antibiotic-sensitive derivative H188 (Zimmerman, W, Antimicrob. Agents Chemother. 18: 94-100, 1980); methicillin sensitive Staphylococcus aureus K147 (Kreiswirth, et al., 1983); Staphylococcus aureus SAP0017, a methicillin resistant clinical isolate from Dr. A. Chow (University of British Columia); Bacillus subtilis, an environmental wt lab strain. Enterococcus faecalis are ATCC 29212 cells and Staphylococcus epidermidis was a clinical isolate from Dr. D. Speert (University of British Columbia). Antifungal activity was tested using a clinical lab isolate of Candida albicans. Salmonella typhinurium C57 and C610 (Fields, P.I., et al., Science 243: 1059-1062 (1989) Corynebacterium xerosis was an environmental isolate (University of British Columbia).
(§2) It is now apparent that agar-based assays severely underestimate antifungal activity as well as activity against gram negative microorganisms (Kondejewski, et al., 1996). Consequently, in the studies reported herein, a liquid-broth method was used to measure the antibiotic properties of the peptides. […] Briefly, cells were grown overnight at 37° C. in LB and diluted in the same medium. Serial dilutions of antibiotics were added to the microtitre plates in a volume of 100 μL followed by 10 μL of bacteria to give a final inoculum of 5×10^5 CFU/mL. Plates were incubated at 37° C. overnight and MICs determined as the lowest antibiotic concentration that inhibited growth.
(§3) The results from antimicrobial and hemolytic assays are combined to provide a “Therapeutic Index” (TI) for each peptide with respect to individual microorganisms. As reported herein, the TI is calculated as the hemolytic activity divided by the antimicrobial activity. The TI thus is a measure of specificity of the particular peptide for microbial membranes as opposed to human blood cell membranes. In the present studies, antimicrobial activities are reported as minimum inhibitory concentrations (MIC)—the lowest concentration of peptide (μg/ml) found to inhibit growth of the particular microbe. Hemolytic activity is reported as the concentration of peptide that effected complete lysis of blood cells after four hours. Thus, in the context of the present invention high TI values indicate microbial specificity and relative lack of toxicity.

yeast = type: cell-based; conditions: hemolytic activity/antibiotic activity
Excerpt: as §1, §2, §3

[2] = system: gram positive microorganisms; type: cell-based; conditions: hemolytic activity/antibiotic activity
Excerpt: as §1, §2, §3

C. Albicans = type: cell-based, Candida albicans
Excerpt: as §1
as §2, with “growth. […]” for “growth.”

E. faecalis = type: cell-based, Enterococcus faecalis
Excerpt: as §1
as §2, with “growth. […]” for “growth.”

C. xeroses = type: cell-based, Corynebacterium xerosis
Excerpt: as §1
as §2, with “growth. […]” for “growth.”

S. epidermidis = type: cell-based, Staphylococcus epidermidis
Excerpt: as §1
as §2, with “growth. […]” for “growth.”

P. aeruginosa H188 = type: cell-based, Pseudomonas aeruginosa
Excerpt: as §1
as §2, with “growth. […]” for “growth.”

S. typhinurium C610 = type: cell-based, Salmonella typhinurium
Excerpt: as §1
as §2, with “growth. […]” for “growth.”

S. typhinurium C587 = type: cell-based, Salmonella typhinurium
Excerpt: as §1
as §2, with “growth. […]” for “growth.”

P. aeruginosa H187 = type: cell-based, Pseudomonas aeruginosa
Excerpt: as §1, §2, §3

B. subtilis = type: cell-based, Bacillus subtilis
Excerpt: as §1
as §2, with “growth. […]” for “growth.”

S. aureus K147 = type: cell-based, Staphylococcus aureus
Excerpt: as §1, §2, §3

S. aureus SAP0017 = type: cell-based, Staphylococcus aureus
Excerpt: as §1, §2, §3

E. coli UB1005 = type: cell-based, Escherichia coli
Excerpt: as §1
as §2, with “growth. […]” for “growth.”

E. coli DC2 = type: cell-based, Escherichia coli
Excerpt: as §1, §2, §3

## CC(C)C[C@@H]1NC(=O)[C@H](CCCN)NC(=O)[C@H](C(C)C)NC(=O)[C@@H]2CCCN2C(=O)[C@@H](Cc2ccccc2)NC(=O)[C@H](CC(C)C)NC(=O)[C@H](CCCN)NC(=O)[C@H](C(C)C)NC(=O)[C@H](CCCN)NC(=O)[C@@H]2CCCN2C(=O)[C@@H](Cc2ccccc2)NC(=O)[C@H](CCCN)NC1=O [GS12FO, FPVOLOFPOVOL] (cyclo(L[Orn][dF]P[Orn]V[Orn]L[dF]PV[Orn]))
[1]
  Therapeutic index, gram-negative: 10
yeast
  Therapeutic index, yeast: 10
[2]
  Therapeutic index, gram-positive: 1.3

## CC(C)C[C@@H]1NC(=O)[C@H](CCCN)NC(=O)[C@H](CC(C)C)NC(=O)[C@@H]2CCCN2C(=O)[C@@H](Cc2ccccc2)NC(=O)[C@H](CC(C)C)NC(=O)[C@H](CCCN)NC(=O)[C@H](CC(C)C)NC(=O)[C@H](CCCN)NC(=O)[C@@H]2CCCN2C(=O)[C@@H](Cc2ccccc2)NC(=O)[C@H](CCCN)NC1=O [GS12FO/LL, FPLOLOFPOLOL] (cyclo(L[Orn]L[Orn][dF]P[Orn]L[Orn]L[dF]P))
[1]
  Therapeutic index, gram-negative: 9.4
yeast
  Therapeutic index, yeast: 11
[2]
  Therapeutic index, gram-positive: 4.0

## CC(C)C[C@@H]1NC(=O)[C@H](CCCCN)NC(=O)[C@H](C(C)C)NC(=O)[C@@H]2CCCN2C(=O)[C@@H](Cc2ccccc2)NC(=O)[C@H](CC(C)C)NC(=O)[C@H](CCCCN)NC(=O)[C@H](C(C)C)NC(=O)[C@H](CCCCN)NC(=O)[C@@H]2CCCN2C(=O)[C@@H](Cc2ccccc2)NC(=O)[C@H](CCCCN)NC1=O [GS12F]
[1]
  Therapeutic index, gram-negative: 25
yeast
  Therapeutic index, yeast: 30
[2]
  Therapeutic index, gram-positive: 3.6

## CC(C)C[C@@H]1NC(=O)[C@H](CCCCN)NC(=O)[C@@H]2CCCN2C(=O)[C@@H](Cc2ccc(O)cc2)NC(=O)[C@H](CCCCN)NC(=O)[C@H](C(C)C)NC(=O)[C@H](CCCCN)NC(=O)[C@H](CC(C)C)NC(=O)[C@@H]2CCCN2C(=O)[C@@H](Cc2ccc(O)cc2)NC(=O)[C@H](C(C)C)NC(=O)[C@H](CCCCN)NC1=O [GS12LV]
[1]
  Therapeutic index, gram-negative: 3.7
yeast
  Therapeutic index, yeast: 1.8
[2]
  Therapeutic index, gram-positive: 0.4

## CC(C)C[C@@H]1NC(=O)[C@H](CCCCN)NC(=O)[C@H](C(C)C)NC(=O)[C@@H]2CCCN2C(=O)[C@@H](Cc2ccc(O)cc2)NC(=O)[C@H](CC(C)C)NC(=O)[C@H](CCCCN)NC(=O)[C@H](C(C)C)NC(=O)[C@H](CCCCN)NC(=O)[C@@H]2CCCN2C(=O)[C@@H](Cc2ccc(O)cc2)NC(=O)[C@H](CCCCN)NC1=O [GS12]
[1]
  Therapeutic index, gram-negative: 7.8
yeast
  Therapeutic index, yeast: 6.0
[2]
  Therapeutic index, gram-positive: 1.0

## CC(C)C[C@@H]1NC(=O)[C@H](CCCCN)NC(=O)[C@H](CC(C)C)NC(=O)[C@@H]2CCCN2C(=O)[C@@H](Cc2ccccc2)NC(=O)[C@H](CC(C)C)NC(=O)[C@@H](CCCCN)NC(=O)[C@H](CC(C)C)NC(=O)[C@H](CCCCN)NC(=O)[C@H](CC(C)C)NC(=O)[C@@H]2CCCN2C(=O)[C@@H](Cc2ccccc2)NC(=O)[C@H](CC(C)C)NC(=O)[C@H](CCCCN)NC1=O [Y2/F2 V3/L3]
C. Albicans
  Therapeutic Index = hemolytic activity/antibacterial activity: 4
E. faecalis
  Therapeutic Index = hemolytic activity/antibacterial activity: 8.3
C. xeroses
  Therapeutic Index = hemolytic activity/antibacterial activity: 12.5
S. epidermidis
  Therapeutic Index = hemolytic activity/antibacterial activity: 6.3
P. aeruginosa H188
  Therapeutic Index = hemolytic activity/antibacterial activity: 4
S. typhinurium C610
  Therapeutic Index = hemolytic activity/antibacterial activity: 1
S. typhinurium C587
  Therapeutic Index = hemolytic activity/antibacterial activity: 0.4
P. aeruginosa H187
  Therapeutic Index = hemolytic activity/antibacterial activity: 1
B. subtilis
  Therapeutic Index = hemolytic activity/antibacterial activity: 2
S. aureus K147
  Therapeutic Index = hemolytic activity/antibacterial activity: 1.4
S. aureus SAP0017
  Therapeutic Index = hemolytic activity/antibacterial activity: 1.4
E. coli UB1005
  Therapeutic Index = hemolytic activity/antibacterial activity: 1.4
E. coli DC2
  Therapeutic Index = hemolytic activity/antibacterial activity: 6.3

## CC(C)C[C@@H]1NC(=O)[C@H](CCCCN)NC(=O)[C@H](C(C)C)NC(=O)[C@@H]2CCCN2C(=O)[C@@H](Cc2ccccc2)NC(=O)[C@H](CC(C)C)NC(=O)[C@H](CCCCN)NC(=O)[C@H](C(C)C)NC(=O)[C@H](CCCCN)NC(=O)[C@H](CC(C)C)NC(=O)[C@@H]2CCCN2C(=O)[C@@H](Cc2ccccc2)NC(=O)[C@H](C(C)C)NC(=O)[C@@H](CCCCN)NC1=O [Y2/F2]
C. Albicans
  Therapeutic Index = hemolytic activity/antibacterial activity: 13
E. faecalis
  Therapeutic Index = hemolytic activity/antibacterial activity: 6.5
C. xeroses
  Therapeutic Index = hemolytic activity/antibacterial activity: 27
S. epidermidis
  Therapeutic Index = hemolytic activity/antibacterial activity: 13
P. aeruginosa H188
  Therapeutic Index = hemolytic activity/antibacterial activity: 13
S. typhinurium C610
  Therapeutic Index = hemolytic activity/antibacterial activity: 13
S. typhinurium C587
  Therapeutic Index = hemolytic activity/antibacterial activity: 4.4
P. aeruginosa H187
  Therapeutic Index = hemolytic activity/antibacterial activity: 2.4
B. subtilis
  Therapeutic Index = hemolytic activity/antibacterial activity: 3.2
S. aureus K147
  Therapeutic Index = hemolytic activity/antibacterial activity: 3.2
S. aureus SAP0017
  Therapeutic Index = hemolytic activity/antibacterial activity: 4.4
E. coli UB1005
  Therapeutic Index = hemolytic activity/antibacterial activity: 6.5
E. coli DC2
  Therapeutic Index = hemolytic activity/antibacterial activity: 27
